PubChem BioAssay AID624291 (National Center for Advancing Translational Sciences (NCATS), 2012)
Among all 350,000 compounds or so, about 220 (0.063%) were called active. The shares of active, inactive and inconclusive entries below differ from those in the screen. The call rests on the fitted dose curve; in most records, active means well fitted activation curve with a large enough effect; inconclusive means small, poorly fitted or top-dose-only effect; inactive means no such curve, though single readings can be large or run the other way. Potencies of inconclusive entries are doubtful fits and often do not repeat.

Assay: qHTS for Activators of Integrin-Mediated Alleviation for Muscular Dystrophy; further: nearly all actives have a fitted effect of over 60% in size;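 on activation: 100% = response of the positive control SU9516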
Conditions: alpha7betagal myoblasts, beta-gal FDG fluorescence, 48 h; activation: at 38.3 µM (top of the series)
Procedure, shortened: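 Alpha7betagal+/- myoblasts (passage 13) were plated 16-24 hr, then exposed to compounds (1:260 dilution of DMSO stock) for 48 hours at 37C. After MPER lysis, β-galactosidase reporter activity was read as FDG fluorescence (ex 480/em 540) after 30 minutes.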
Potency means the concentration at half of the fitted maximal effect.

Potency, inactive:
COc1ccc2c(c1)OC[C@H]1[C@H]2N2C(=O)CN(CCc3c[nH]c4ccccc34)C(=O)[C@@]2(C)[C@H]1c1ccccc1
COc1ccc(-c2noc(CN3CCCC(OCc4ccccn4)C3)n2)cc1 (stereo unspecified)
COCCNc1nnc(SCC(=O)c2c[nH]c3ccccc23)s1
Cc1cc(C(F)(F)F)c2sc(N)nc2n1
O=C(CSc1nncc2ccccc12)Nc1ccc(C(=O)O)cc1
COc1ccc(F)cc1S(=O)(=O)NCCCn1ccnc1
COc1ccc(C(=O)Oc2c(CN3CCOCC3)cc(Cl)c3cccnc23)cc1
CCOC(=O)CNC(=O)CSc1nnc(C)c(=O)[nH]1
COc1ccccc1NC(=O)Nc1ccnn1Cc1cccs1
CNC(=O)/C(C#N)=C/c1cccc(Oc2ccccc2)c1
O=C(C1=C(O)C(=O)N(CC2CCCO2)C1c1cccc(Cl)c1)c1ccco1 (stereo unspecified)
COc1ccc(-n2c(=S)[nH]c3cc(C(=O)Nc4cc(OC)c(OC)c(OC)c4)ccc3c2=O)c(OC)c1
CCc1nc(SCC(=O)Nc2nnc(CC)s2)c2c(=O)n(C)c(=O)n(C)c2n1
C=CCOC(=O)C1=C[C@@H](c2cn(C(C)=O)c3ccccc23)C[C@@H](OCc2ccc(CO)cc2)O1
CC1CC(C)CN(C(=O)COC(=O)CNS(=O)(=O)/C=C/c2ccccc2)C1 (stereo unspecified)
O=C(CN(Cc1ccccc1)S(=O)(=O)c1ccccc1)N/N=C/c1ccc2c(c1)OCO2
COCCNC(=O)CSc1nc(N)c(NC(=O)c2ccco2)c(=O)[nH]1
O=C(NC1CCCCC1)N(c1ccccc1)c1nnc(-c2cccc([N+](=O)[O-])c2)s1

Potency, inconclusive:
CCc1[nH]nc2c1C1(CCOC1C)C(C#N)=C(N)O2 (stereo unspecified) 7.08 µM [activator, partial curve, poor fit]
Cc1cc(C)cc(OCC(=O)OCC(=O)NCCC2=CCCCC2)c1 28.2 µM [activator, single point]
Cc1cc(C)c(NC(=S)N(CCN(C)C)C(C)c2cccnc2)c(C)c1 (stereo unspecified) 12.6 µM [activator, single point]
O=C(CSc1nnc(COc2ccc(Br)cc2)o1)NC1CCCCC1 8.91 µM [activator, partial curve, poor fit]
O=C(c1ccc(Br)cc1)N(Cc1ccco1)C1CCS(=O)(=O)C1 (stereo unspecified) 5.01 µM [activator, single point]
CC1CC(C)(C)CC2(C1)NC(=O)N(CC(=O)N1CCN(S(=O)(=O)c3cccc(F)c3)CC1)C2=O (stereo unspecified) 5.01 µM [activator, single point]
CC(C)NS(=O)(=O)c1ccc(NC(=O)C(C)OC(=O)C2CCC2)cc1 (stereo unspecified) 3.16 µM [activator, single point]
CC(C)c1nc2scc(-c3ccc(Cl)cc3)c2c(=O)n1N 1.41 µM [activator, partial curve, poor fit]
C=CCSc1nnc2c(n1)OC(c1ccccn1)N(C(C)=O)c1ccccc1-2 (stereo unspecified) 5.01 µM [activator, single point]
Cc1ccc(NC(=O)C2CCCN2C(=O)OCc2ccccc2)c(C)c1 (stereo unspecified) 1.58 µM [activator, single point]
Cc1cnc(NS(=O)(=O)c2ccccc2)c(C)n1 2 µM [activator, full curve, poor fit]
COc1ccc(Nc2nc(C)cc(C)c2C#N)cc1 3.16 µM [activator, partial curve, poor fit]
COCCCN1CN(Cc2ccco2)CNC1=S 5.01 µM [activator, single point]
COc1ccc(Cc2nnc(NC(=O)c3cccs3)s2)cc1 12.6 µM [activator, single point]
Cn1c(N)c(C(=O)COC(=O)CC(NC(N)=O)c2ccc(Cl)cc2)c(=O)n(C)c1=O (stereo unspecified) 0.501 µM [activator, full curve, poor fit]
O=C(N/N=C/c1c(F)cccc1Cl)C(=O)N1CCCCCC1 1 µM [activator, full curve, poor fit]
CC(C(=O)NN)c1ccc([N+](=O)[O-])cc1 (stereo unspecified) 5.01 µM [activator, single point]
CCc1ccccc1N(CC(=O)NC1CCCCC1)C(=O)CCCC(=O)Nc1ccccn1 10 µM [activator, single point]
N/C(=N\c1nc2ccccc2o1)NC(=O)/C=C/c1ccccc1 3.55 µM [activator, single point]
CC(Sc1nnc(-c2ccccc2F)n1C1CC1)C(N)=O (stereo unspecified) 17.8 µM [activator, partial curve, poor fit]
O=C1CCC(=O)N1OCCOc1ccccc1 28.2 µM [activator, single point]
CCOC(=O)c1c(S(=O)(=O)NCC(=O)N2CCN(c3ccccc3)CC2)c(C)n(C)c1C 3.55 µM [activator, single point]
Cc1ccc(Oc2nc3ccccn3c(=O)c2/C=C(\C#N)C(=O)NC2CCS(=O)(=O)C2)cc1 (stereo unspecified) 2 µM [activator, partial curve, poor fit]
O=C(Nc1ccccc1OC(=O)c1ccc(Cl)cc1)c1ccc(Cl)cc1 3.55 µM [activator, partial curve]
CC(=O)NCCC(=O)Nc1nc(-c2ccccc2Cl)cs1 14.1 µM [activator, partial curve, poor fit]
Cc1c(Cc2ccccc2)sc(NC(=O)/C=C/c2cccc3ccccc23)c1C(N)=O 5.01 µM [activator, single point]
CCOC(=O)c1c(C)c(C(=O)NCCc2ccccc2)c(C)n1C 1.41 µM [activator, partial curve, poor fit]
COc1cccc(NC(=O)COc2ccc(C(=O)N3CCN(C)CC3)cc2)c1 0.891 µM [activator, full curve, poor fit]
CCC(C)[C@H](NC(=O)C1CCN(C(=O)[C@H](Cc2ccccc2)NC(=O)OC(C)(C)C)CC1)C(=O)O (stereo partly specified) 5.01 µM [activator, single point]
CC(C)(C)c1cc(CP(=O)(c2ccccc2)c2ccccc2)cc(C(C)(C)C)c1O 31.6 µM [activator, partial curve, poor fit]
COc1ccc(N2CCN(C(=O)COC(=O)CNC(=O)c3ccccc3)CC2)cc1 5.01 µM [activator, single point]
O=c1oc(-c2ccc([N+](=O)[O-])cc2)nc2ccc(O)cc12 5.01 µM [activator, single point]
CCn1c(NCc2ccc(OC)cc2)nc2ccccc21 12.6 µM [activator, single point]
COc1ccccc1NS(=O)(=O)c1cc(NC(=O)CCNC(C)=O)ccc1C 28.2 µM [activator, partial curve, poor fit]
Fc1ccc(N2CCN(c3ncnc4nc[nH]c34)CC2)cc1 5.01 µM [activator, single point]
COc1ccc(-c2csc3nc(-c4cccnc4)nc(N4CCC(C(N)=O)CC4)c23)cc1OC 5.01 µM [activator, single point]
Cc1cc(NC(=O)C(C)SCC(=O)OC(C)C(=O)Nc2ccccc2C)no1 (stereo unspecified) 10 µM [activator, partial curve]
CCN(CC)C(=O)c1sc2nc(-c3ccc(OC)cc3)cn2c1C 7.94 µM [activator, partial curve]
O=C(Nc1cccc(F)c1)N1CCC(c2ccccc2)CC1 10 µM [activator, single point]
O=C(NCCc1cccs1)c1cccs1 7.08 µM [activator, partial curve, poor fit]
CN1C(=O)c2cccc3c(N(C)C)ccc(c23)C1=O 3.16 µM [activator, single point]
Cc1cnc(C(=O)NCCc2ccc(Cl)cc2)cn1 3.55 µM [activator, partial curve, poor fit]
Cc1cccc(NC(=O)C2CCC(CNC(=O)[C@@H]3Cc4ccccc4CN3)CC2)c1 (stereo partly specified) 5.01 µM [activator, single point]
Cc1nc(=O)c(-c2ccccc2)c(C)n1-c1ccc(O)c(C(=O)O)c1 12.6 µM [activator, partial curve, poor fit]
Nn1c(SCc2ccccc2F)nnc1-c1ccncc1 11.2 µM [activator, partial curve, poor fit]
O=[N+]([O-])c1c(NCCO)cc(Sc2nc3ccccc3s2)c2nonc12 5.01 µM [activator, single point]
COc1ccc(OC)c(NC(=O)c2cc(-c3cc(C)cc(C)c3O)n[nH]2)c1 5.01 µM [activator, single point]

For reference, 2 of the compounds above:
Potency, inconclusive:
O=C(c1ccc(Br)cc1)N(Cc1ccco1)C1CCS(=O)(=O)C1 (stereo unspecified) 5.01 µM [activator, single point]
CC1CC(C)(C)CC2(C1)NC(=O)N(CC(=O)N1CCN(S(=O)(=O)c3cccc(F)c3)CC1)C2=O (stereo unspecified) 5.01 µM [activator, single point]

Next part:

activation, inconclusive:
CC(C)CC[n+]1ccccc1/C=C/c1ccc(N(C)C)cc1 -66.1% [activator]
